The list shows only some results of the screen, not a fair sample: it is rich in T/C values a quarter to a half above the control, in often repeated tests (any T/C) and in doses without a T/C. Other doses and runs of a compound stand elsewhere. T/C: endpoint of the treated group in % of that of the vehicle group. Some doses have a count of surviving animals in place of a T/C: the source files T/C as zero there, which appears to mark a toxic dose or a test without result, not a measured value. Some doses without a T/C left all or most animals alive at the check, yet need not have been tolerated: the source hardly ever lists a survival T/C far under the control, and the zero likely stands for such cases as well. Survivors were counted at the toxicity check, usually on the fifth day, unless a day is given; later deaths do not show. Schedules are NCI's codes, taken here to give the interval after Q, in days (D) or hours (H), and the number of doses after X. Some entries hold several experiments; their values stand side by side, smallest first. Where survival is the endpoint, the PubChem record calls one and a half times the control and up active, and a quarter to a half above the control has no call in these data; cut-offs in other NCI protocols can differ. Some T/C values are followed by the survivors on the day toxicity was checked, most often the fifth; without a count, all were alive then.

This assay deals with B6C3F1 mice, B16 melanoma ip, median survival T/C. Kind of assay: NCI In Vivo Anticancer Drug Screen. Data for tumor model B16 Melanoma (intraperitoneal) in B6C3F1 mice. As to conditions: T/C endpoint: median survival time, higher T/C = longer survival. An outline of the steps:
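Mice bearing transplanted tumor were dosed with compound or vehicle, and survival was recorded. Activity is expressed as the treated-group measurement (T) divided by the vehicle control measurement (C).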

Setting [1] is: dose: 50.0 mg/kg/injection, schedule: Q01DX009 (ip), vehicle: saline.
Setting [2] is: dose: 200.0 mg/kg/injection, schedule: Q01DX009 (ip), vehicle: saline.
Setting [3] is: dose: 400.0 mg/kg/injection, schedule: Q01DX009 (ip), vehicle: saline.
Where [4] appears, read: dose: 200.0 mg/kg/injection, schedule: Q01DX009 (ip), vehicle: saline with Tween-80.
[5] abbreviates: dose: 100.0 mg/kg/injection, schedule: Q01DX009 (ip), vehicle: saline with Tween-80.
Setting [6] is: dose: 400.0 mg/kg/injection, schedule: Q01DX009 (ip), vehicle: saline with Tween-80.
The mark [7] stands for this setting: dose: 400.0 mg/kg/injection, schedule: Q01DX009 (ip), vehicle: Klucel (hydroxypropylcellulose) (HPC).

Regarding `COC1/C=C/C=C(/C)Cc2cc(O)c(Cl)c(c2)N(C)C(=O)CC(OC(=O)C(C)C)C2(C)OC2C(C)C2CC1(O)NC(=O)O2` (centres undefined), the T/C (dose: 0.12 mg/kg/injection, schedule: Q01DX009 (ip), vehicle: saline + alcohol) was 142 % of control; the T/C (dose: 1.0 mg/kg/injection, schedule: Q01DX009 (ip), vehicle: saline + alcohol) was 147 % of control; the T/C (dose: 50.0 micrograms/kg/injection, schedule: Q01DX009 (ip), vehicle: saline + alcohol) was 138 % of control; the T/C (dose: 100.0 micrograms/kg/injection, schedule: Q01DX009 (ip), vehicle: saline + alcohol) was 141 % of control; the T/C (dose: 200.0 micrograms/kg/injection, schedule: Q01DX009 (ip), vehicle: saline + alcohol) is 144 % of control; the T/C (dose: 800.0 micrograms/kg/injection, schedule: Q01DX009 (ip), vehicle: saline + alcohol) is 145 % of control. In addition, the survivor count by setting is: (dose: 2.0 mg/kg/injection, schedule: Q01DX009 (ip), vehicle: saline + alcohol) 8 of 10; (dose: 4.0 mg/kg/injection, schedule: Q01DX009 (ip), vehicle: saline + alcohol) 1 of 10.
For `COc1cccc2c1C(=O)c1c(O)c3c(c(O)c1C2=O)C[C@@](O)(C(C)=O)C[C@@H]3OC1CC(N2CCOCC2)C(O)C(C)O1` (some centres undefined), the T/C runs as follows: (dose: 0.25 mg/kg/injection, schedule: Q01DX001 (ip), vehicle: water) 144 % of control; (dose: 250.0 micrograms/kg/injection, schedule: Q01DX001 (ip), vehicle: water) 126 % of control. Also, the survivor count runs as follows: (dose: 0.5 mg/kg/injection, schedule: Q01DX001 (ip), vehicle: water) 9 of 10; (dose: 1.0 mg/kg/injection, schedule: Q01DX001 (ip), vehicle: water) 7 of 10; (dose: 2.0 mg/kg/injection, schedule: Q01DX001 (ip), vehicle: water) 0 of 10; (dose: 500.0 micrograms/kg/injection, schedule: Q01DX001 (ip), vehicle: water) 6 of 10.
For `O=C1N(CC2CO2)CCN1CC1CO1` (centres undefined), the T/C reads like this: under setting [1], 145 % of control; under setting [3], 133 % of control. Further, the survivor count under setting [2] is on record as 10 of 10 and the survivor count (dose: 200.0 mg/kg/injection, schedule: Q01DX009 (ip), vehicle: suspension in saline) is 10 of 10.
`C[n+]1c(/C=N/NC(N)=S)ccc2ccccc21`: the survivor count under setting [4] is given as 10 of 10.
Take `CC(C)CC(NC(=O)C(F)(F)F)C(=O)O` (centres undefined): under “dose: 100.0 mg/kg/injection, schedule: Q01DX009 (ip), vehicle: saline”, the survivor count is listed as 10 of 10.
On to `O=c1[nH]c(=O)n([C@H]2CCCO2)cc1F`, for which the survivor count (dose: 400.0 mg/kg/injection, schedule: Q01DX009 (ip), vehicle: suspension in saline) is 10 of 10.
Consider `COc1cc2cc3cc4cc(OC)c(OC)cc4c(C)[n+]3cc2cc1OC` (tested in a mixture with another compound), for which the survivor count is listed as 10 of 10 under setting [2] and 7 of 10 under setting [3].
Consider `Cc1ccc(NN=O)nc1`, for which the T/C is 130 % of control (dose: 3.12 mg/kg/injection, schedule: Q01DX009 (ip), vehicle: water); 142 % of control (dose: 6.25 mg/kg/injection, schedule: Q01DX009 (ip), vehicle: water); 140 % of control (dose: 12.0 mg/kg/injection, schedule: Q01DX009 (ip), vehicle: water). In addition, the survivor count is given as 9 of 10 (dose: 12.5 mg/kg/injection, schedule: Q01DX009 (ip), vehicle: water) and 8 of 10 (dose: 25.0 mg/kg/injection, schedule: Q01DX009 (ip), vehicle: water).
Regarding `C/C=C(\C)c1cc(=O)c2c(C)cc3c(c2o1)C(=O)c1c(O)c(C2CC(C)(N(C)C)C(OC(C)=O)C(C)O2)cc(C2CC(N(C)C)C(O)C(C)O2)c1C3=O` (centres undefined), the T/C is, setting by setting: (dose: 0.31 mg/kg/injection, schedule: Q01DX009 (ip), vehicle: saline) 133 % of control; (dose: 0.62 mg/kg/injection, schedule: Q01DX009 (ip), vehicle: saline) 140 % of control [9 of 10 alive]; (dose: 1.25 mg/kg/injection, schedule: Q01DX009 (ip), vehicle: saline) 138 % of control; (dose: 1.25 mg/kg/injection, schedule: Q01DX009 (ip), vehicle: suspension in saline) 127 % of control; (dose: 2.5 mg/kg/injection, schedule: Q01DX009 (ip), vehicle: suspension in saline) 136 % of control; (dose: 5.0 mg/kg/injection, schedule: Q01DX009 (ip), vehicle: suspension in saline) 125 % of control.
As for `C=C1C(=O)[C@]23C[C@H]1CC[C@H]2[C@@]12CO[C@@H](O)[C@@H]1C(C)(C)[C@@H](O)C[C@@H]2OC3=O`, the survivor count is, setting by setting: under setting [5], 1 of 10; under setting [4], 2 of 10; under setting [6], 0 of 10.
Consider `CCC/C=C/C=C/C(=O)OC1/C(=C/C(=O)OC)CC2CC(C(C)O)OC(=O)CC(O)CC3CC(OC(C)=O)C(C)(C)C(O)(CC4C/C(=C/C(=O)OC)CC(/C=C/C(C)(C)C1(O)O2)O4)O3` (centres undefined), for which the survivor count (dose: 150.0 micrograms/kg/injection, schedule: Q01DX009 (ip), vehicle: saline + alcohol) was 7 of 10 and the survivor count (dose: 300.0 micrograms/kg/injection, schedule: Q01DX009 (ip), vehicle: saline + alcohol) was 2 of 10.
As for `Nc1nc2c(ncn2C2OC(CO)C(O)C2O)c(=O)[nH]1` (centres undefined), the T/C is 132 % of control (dose: 150.0 mg/kg/injection, schedule: Q01DX009 (ip), vehicle: saline with Tween-80); 132 % of control [9 of 10 alive] (dose: 300.0 mg/kg/injection, schedule: Q01DX009 (ip), vehicle: saline with Tween-80); 130 % of control [9 of 10 alive] (dose: 600.0 mg/kg/injection, schedule: Q01DX009 (ip), vehicle: saline with Tween-80).
As for `O=C1CSC(c2cccs2)N1c1nncs1` (centres undefined), the survivor count under setting [7] was 10 of 10.
In the case of `Oc1ccc2ccccc2c1N=Nc1ccc(F)cc1`, the T/C under setting [5] was 129 % of control.
Regarding `COc1cccc2c1C(=O)c1c(O)c3c(c(O)c1C2=O)C[C@@](O)(/C(C)=N/NC(N)=S)C[C@@H]3OC1CC(N)C(O)C(C)O1` (some centres undefined), for the setting “dose: 200.0 mg/kg/injection, schedule: Q01DX001 (ip), vehicle: water”, the survivor count is 10 of 10.
Consider `COc1cc2c(c(OC)c1O)-c1ccc(OC)c(=O)cc1[C@@H](NC(=O)C(F)(F)F)CC2`, for which the T/C is, setting by setting: (dose: 0.54 mg/kg/injection, schedule: Q01DX009 (ip), vehicle: Klucel (hydroxypropylcellulose) (HPC)) 130 % of control; (dose: 0.9 mg/kg/injection, schedule: Q01DX009 (ip), vehicle: Klucel (hydroxypropylcellulose) (HPC)) 135 % of control; (dose: 1.25 mg/kg/injection, schedule: Q01DX009 (ip), vehicle: Klucel (hydroxypropylcellulose) (HPC)) 132 % of control; (dose: 1.5 mg/kg/injection, schedule: Q01DX009 (ip), vehicle: Klucel (hydroxypropylcellulose) (HPC)) 137 % of control; (dose: 2.5 mg/kg/injection, schedule: Q01DX009 (ip), vehicle: Klucel (hydroxypropylcellulose) (HPC)) 134 and 137 % of control. For the same compound, the survivor count (dose: 5.0 mg/kg/injection, schedule: Q01DX009 (ip), vehicle: Klucel (hydroxypropylcellulose) (HPC)) is 5 of 10 and 10 of 10; the survivor count (dose: 10.0 mg/kg/injection, schedule: Q01DX009 (ip), vehicle: Klucel (hydroxypropylcellulose) (HPC)) was 2 of 10 and 10 of 10.
Consider `CCOC(=O)CNC(=O)Sc1ccc(C(C)(C)C)cc1`, for which the survivor count under setting [7] was 0 of 9.
On to `COC(=O)Nc1cn2ccc(Sc3ccccc3)cc2n1`, for which, where the note is “dose: 200.0 mg/kg/injection, schedule: Q01DX009 (ip), vehicle: Klucel (hydroxypropylcellulose) (HPC)”, the survivor count is recorded as 10 of 10.
As for `CCOC(=O)c1ccc(NC(=O)Nc2nc(C)cs2)cc1`, the T/C is, setting by setting: (dose: 50.0 mg/kg/injection, schedule: Q01DX009 (ip), vehicle: distilled water + Tween-80) 137 % of control; (dose: 100.0 mg/kg/injection, schedule: Q01DX009 (ip), vehicle: distilled water + Tween-80) 139 % of control. Also, the survivor count (dose: 200.0 mg/kg/injection, schedule: Q01DX009 (ip), vehicle: distilled water + Tween-80) is reported as 4 of 8.
Turning to `O=C(CCl)NC(Cc1ccccc1)C(=O)O` (centres undefined), the survivor count under setting [6] is recorded as 9 of 10.
For `COc1cc(NCCCCCCCNC(C)C)c2nccc(C)c2c1`, under setting [1], the survivor count is listed as 1 of 10.

The values above are taken from PubChem BioAssay AID200 (DTP/NCI, 2004).
